# Measured values as given in patent publication US10533207B2, “Bioactivity testing structure for single cell tracking using gelling agents” (QuantaMatrix Inc., priority 2014, dated 2020).
# For at least one compound, name, drawing or mass did not settle the structure.
# System: M. tuberculosis H37Rv
# Experiment: DST of MTB using the DAC system (MIC from time-lapse images)
# Assay type: cell-based, Mycobacterium tuberculosis
# Settings: from the MIC data
smiles,measurement,value
"CO[C@H]1/C=C/O[C@@]2(C)Oc3c(C)c(O)c4c(O)c(c(/C=N/N5CCN(C)CC5)c(O)c4c3C2=O)NC(=O)/C(C)=C\C=C\[C@H](C)[C@H](O)[C@@H](C)[C@@H](O)[C@@H](C)[C@H](OC(C)=O)[C@@H]1C [RFP, rifampicin]",susceptibility of the strain (in words),sensitive
